Data as given in patent US20220259258 (published 2022).

Test: general procedure: Fmoc solid-phase peptide synthesis in flow
Conditions: whole synthesis, 210 nm

In the case of GIGKFLKKAKKFGKAFVKILKK, the “final HPLC purity” value is reported as over 91%.

End groups of sequences in plain letters are not given here.
